Results on 1 substance are retold here after article PMC4422595.

By UniProt entry, the sequences of proteins in these tests, tags left out.
UniProt Q9UKV5: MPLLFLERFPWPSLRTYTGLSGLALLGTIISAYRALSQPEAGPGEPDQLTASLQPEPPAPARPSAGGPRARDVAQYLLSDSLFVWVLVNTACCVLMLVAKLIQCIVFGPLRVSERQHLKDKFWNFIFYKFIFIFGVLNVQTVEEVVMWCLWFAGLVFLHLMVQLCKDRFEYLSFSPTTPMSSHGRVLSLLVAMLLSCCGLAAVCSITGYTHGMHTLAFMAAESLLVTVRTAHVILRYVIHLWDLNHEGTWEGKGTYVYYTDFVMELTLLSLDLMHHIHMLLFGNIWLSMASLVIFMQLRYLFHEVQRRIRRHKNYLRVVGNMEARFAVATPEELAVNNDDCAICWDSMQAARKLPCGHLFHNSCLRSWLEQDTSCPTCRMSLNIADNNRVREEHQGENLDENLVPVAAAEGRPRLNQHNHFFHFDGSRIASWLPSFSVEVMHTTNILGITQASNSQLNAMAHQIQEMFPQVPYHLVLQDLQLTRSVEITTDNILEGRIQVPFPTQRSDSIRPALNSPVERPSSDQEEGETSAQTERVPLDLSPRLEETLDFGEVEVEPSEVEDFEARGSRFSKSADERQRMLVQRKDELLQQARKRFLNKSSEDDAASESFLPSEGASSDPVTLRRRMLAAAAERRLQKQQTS

The experiment addresses Glucose-6-phosphate isomerase, Flag-tagged (pcDNA3.1-GPI-Flag) (human) (UniProt P06744). The experiment in a line: co-IP; FLS transfected with pcDNA3.1-GPI-Flag; lysates collected 48 hours later; FLAG Immunoprecipitation Kit (Sigma-Aldrich); bound fragments analysed by Western blot. On the technique in general: Immunoblotting shows a protein as a band on a membrane.

These are yes or no findings as the source states them, for the method shown. Binding seen in cells or lysates may run through a third protein. Some results given as binding are weak or reduced against the parent protein; the word gives no strength.

As to “glycoprotein 78 (autocrine motility factor receptor) (from UniProt Q9UKV5 1-643)”, the binding entry is given as “binds”.
